Results are given in words; binding and its absence hold for the method and conditions named. In cells and extracts the contact can be indirect. Some binding calls cover weakened binding; strength is not graded here. One block for each substance: values may come before it.
Columns and labels:
Assay in all cases: co-IP
[1] = molecular target: GST-Runx3 (pGEX4T-1-RUNX3 aa 49-187) (UniProt Q13761)
[2] = molecular target: SMARCA4/Brg1 (endogenous, HGC-27) (human (endogenous in HGC-27)) (UniProt P51532)
[3] = molecular target: His-tagged RUNX3 (C-terminal 6XHis) (human) (UniProt Q13761)

Amino acid sequences for entries named in this document (tags omitted). A change or cut given only in a name is not applied to a line headed by its entry.
UniProt Q13761: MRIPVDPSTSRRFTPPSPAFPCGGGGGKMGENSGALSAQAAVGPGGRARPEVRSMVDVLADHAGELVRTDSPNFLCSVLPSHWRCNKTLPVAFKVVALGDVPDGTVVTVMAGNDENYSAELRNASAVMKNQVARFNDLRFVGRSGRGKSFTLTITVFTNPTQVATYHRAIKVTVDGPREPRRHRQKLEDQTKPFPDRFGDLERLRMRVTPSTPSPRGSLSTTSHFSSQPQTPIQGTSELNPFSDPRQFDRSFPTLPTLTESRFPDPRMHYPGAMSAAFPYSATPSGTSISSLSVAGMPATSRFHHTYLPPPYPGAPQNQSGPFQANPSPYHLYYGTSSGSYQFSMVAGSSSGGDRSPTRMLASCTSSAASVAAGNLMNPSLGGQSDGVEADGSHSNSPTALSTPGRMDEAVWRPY
UniProt P51532: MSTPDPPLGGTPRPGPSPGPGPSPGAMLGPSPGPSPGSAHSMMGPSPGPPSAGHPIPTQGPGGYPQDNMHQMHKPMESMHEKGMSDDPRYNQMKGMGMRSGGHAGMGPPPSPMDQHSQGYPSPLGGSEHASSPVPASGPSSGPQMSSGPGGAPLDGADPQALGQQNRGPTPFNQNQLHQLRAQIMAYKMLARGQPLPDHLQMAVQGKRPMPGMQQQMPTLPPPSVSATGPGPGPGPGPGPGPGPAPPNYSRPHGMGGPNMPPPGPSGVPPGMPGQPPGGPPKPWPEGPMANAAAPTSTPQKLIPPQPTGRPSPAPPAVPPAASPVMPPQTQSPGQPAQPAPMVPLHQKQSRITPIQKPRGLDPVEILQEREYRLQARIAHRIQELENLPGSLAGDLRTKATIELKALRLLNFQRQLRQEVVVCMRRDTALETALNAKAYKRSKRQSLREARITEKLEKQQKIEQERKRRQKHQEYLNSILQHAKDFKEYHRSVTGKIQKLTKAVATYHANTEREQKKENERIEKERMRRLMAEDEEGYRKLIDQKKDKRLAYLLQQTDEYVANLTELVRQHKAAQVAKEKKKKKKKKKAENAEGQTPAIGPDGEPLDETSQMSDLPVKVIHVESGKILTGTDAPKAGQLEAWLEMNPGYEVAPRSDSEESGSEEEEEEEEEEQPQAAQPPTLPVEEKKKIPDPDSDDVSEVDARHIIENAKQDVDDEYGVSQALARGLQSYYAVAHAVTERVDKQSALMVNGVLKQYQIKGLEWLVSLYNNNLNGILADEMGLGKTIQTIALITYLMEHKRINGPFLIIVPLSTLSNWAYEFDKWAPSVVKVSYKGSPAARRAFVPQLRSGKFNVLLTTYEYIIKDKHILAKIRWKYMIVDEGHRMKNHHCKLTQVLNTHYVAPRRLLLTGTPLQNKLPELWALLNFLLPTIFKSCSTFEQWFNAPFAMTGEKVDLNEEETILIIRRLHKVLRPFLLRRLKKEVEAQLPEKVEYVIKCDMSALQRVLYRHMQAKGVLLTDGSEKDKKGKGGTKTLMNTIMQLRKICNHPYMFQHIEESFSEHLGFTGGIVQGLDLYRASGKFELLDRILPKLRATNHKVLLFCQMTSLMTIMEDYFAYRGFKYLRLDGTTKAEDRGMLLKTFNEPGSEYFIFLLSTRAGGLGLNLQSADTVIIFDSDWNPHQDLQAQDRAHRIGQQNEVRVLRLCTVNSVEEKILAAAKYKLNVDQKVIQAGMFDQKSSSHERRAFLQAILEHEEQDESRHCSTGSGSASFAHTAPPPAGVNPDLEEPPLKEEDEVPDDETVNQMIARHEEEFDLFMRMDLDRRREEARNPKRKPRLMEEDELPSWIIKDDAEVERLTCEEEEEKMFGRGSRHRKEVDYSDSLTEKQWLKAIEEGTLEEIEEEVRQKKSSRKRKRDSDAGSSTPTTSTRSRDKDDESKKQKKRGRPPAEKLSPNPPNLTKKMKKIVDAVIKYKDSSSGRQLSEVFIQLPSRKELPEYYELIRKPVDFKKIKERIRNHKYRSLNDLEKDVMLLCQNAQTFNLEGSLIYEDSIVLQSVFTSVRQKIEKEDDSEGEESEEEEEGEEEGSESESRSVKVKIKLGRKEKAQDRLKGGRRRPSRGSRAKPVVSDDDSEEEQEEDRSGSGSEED

binding [1]: binds
Substance: His-tagged RUNX3 (C-terminal 6XHis) (from UniProt Q13761 1-415)

binding [2]: binds
Substance: Runx3 (endogenous, HGC-27) (from UniProt Q13761 1-415)

binding [3]: binds
Substance: GST-Runx3 (pGEX4T-1-RUNX3 aa 49-187) (from UniProt Q13761 49-187) (domain or fragment)

— publication doi:10.1101/2024.08.16.608297
